Results are given in words; binding and its absence hold for the method and conditions named. Binding seen in cells or lysates may run through a third protein. Some entries that bind do so weakly or less than the wild type.
Assays:
Test in all cases: co-IP; lysates of dissociated mammospheres of mock or p140Cap TuBo and 4T1 cells; lysis buffer 150 mM NaCl, 50 mM Tris pH 7.4, 1% NP-40, 1 mM MgCl2, 5% glycerol; 1 or 2 mg of proteins with 1 or 2 ug of antibodies to p140Cap, β-Catenin, Axin1 or GSK-3β, protein G Dynabeads, 2 h at 4 °C, seven washes; immunoblot; β-Catenin IP also from mock TuBo mammospheres treated 5 days with 1 uM IWR-1 or DMSO
[1] = biological target: T1, p140Cap adaptor protein, encoded by the SRCIN1 gene, expressed by retroviral transduction (UniProt Q9QWI6)
T1 sequence: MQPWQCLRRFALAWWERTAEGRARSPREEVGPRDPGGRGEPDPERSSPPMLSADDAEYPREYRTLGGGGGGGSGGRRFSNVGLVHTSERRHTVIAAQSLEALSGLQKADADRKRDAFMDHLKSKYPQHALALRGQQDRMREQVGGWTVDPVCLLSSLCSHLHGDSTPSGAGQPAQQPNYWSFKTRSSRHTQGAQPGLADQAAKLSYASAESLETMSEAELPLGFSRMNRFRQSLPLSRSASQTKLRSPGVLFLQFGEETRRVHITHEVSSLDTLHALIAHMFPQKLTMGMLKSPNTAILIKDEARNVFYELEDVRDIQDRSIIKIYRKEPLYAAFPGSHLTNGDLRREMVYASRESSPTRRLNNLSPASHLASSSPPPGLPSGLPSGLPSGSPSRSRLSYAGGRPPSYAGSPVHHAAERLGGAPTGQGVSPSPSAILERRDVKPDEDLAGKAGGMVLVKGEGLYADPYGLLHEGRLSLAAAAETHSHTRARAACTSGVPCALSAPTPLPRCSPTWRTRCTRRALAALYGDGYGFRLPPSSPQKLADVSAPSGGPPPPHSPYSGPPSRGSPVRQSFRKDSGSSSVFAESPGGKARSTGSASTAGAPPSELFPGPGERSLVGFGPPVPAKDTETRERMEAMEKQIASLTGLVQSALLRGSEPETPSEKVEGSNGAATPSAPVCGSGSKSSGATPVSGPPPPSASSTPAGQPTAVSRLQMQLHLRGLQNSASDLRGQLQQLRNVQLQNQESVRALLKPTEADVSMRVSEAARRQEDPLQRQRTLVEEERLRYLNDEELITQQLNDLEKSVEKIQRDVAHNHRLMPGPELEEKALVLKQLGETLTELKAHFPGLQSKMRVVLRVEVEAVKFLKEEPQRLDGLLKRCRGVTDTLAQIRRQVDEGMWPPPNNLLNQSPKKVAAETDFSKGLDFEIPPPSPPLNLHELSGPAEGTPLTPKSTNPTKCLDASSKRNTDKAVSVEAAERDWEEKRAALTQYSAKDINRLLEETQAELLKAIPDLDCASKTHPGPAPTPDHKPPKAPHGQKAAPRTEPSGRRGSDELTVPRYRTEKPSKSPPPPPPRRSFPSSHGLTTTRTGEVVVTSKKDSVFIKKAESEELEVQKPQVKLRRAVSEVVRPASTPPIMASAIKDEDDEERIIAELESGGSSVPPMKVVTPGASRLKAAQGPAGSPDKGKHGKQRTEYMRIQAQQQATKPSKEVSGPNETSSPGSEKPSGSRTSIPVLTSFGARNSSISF

The chains behind the UniProt entries cited, without tags or fusion partners.
UniProt O35625: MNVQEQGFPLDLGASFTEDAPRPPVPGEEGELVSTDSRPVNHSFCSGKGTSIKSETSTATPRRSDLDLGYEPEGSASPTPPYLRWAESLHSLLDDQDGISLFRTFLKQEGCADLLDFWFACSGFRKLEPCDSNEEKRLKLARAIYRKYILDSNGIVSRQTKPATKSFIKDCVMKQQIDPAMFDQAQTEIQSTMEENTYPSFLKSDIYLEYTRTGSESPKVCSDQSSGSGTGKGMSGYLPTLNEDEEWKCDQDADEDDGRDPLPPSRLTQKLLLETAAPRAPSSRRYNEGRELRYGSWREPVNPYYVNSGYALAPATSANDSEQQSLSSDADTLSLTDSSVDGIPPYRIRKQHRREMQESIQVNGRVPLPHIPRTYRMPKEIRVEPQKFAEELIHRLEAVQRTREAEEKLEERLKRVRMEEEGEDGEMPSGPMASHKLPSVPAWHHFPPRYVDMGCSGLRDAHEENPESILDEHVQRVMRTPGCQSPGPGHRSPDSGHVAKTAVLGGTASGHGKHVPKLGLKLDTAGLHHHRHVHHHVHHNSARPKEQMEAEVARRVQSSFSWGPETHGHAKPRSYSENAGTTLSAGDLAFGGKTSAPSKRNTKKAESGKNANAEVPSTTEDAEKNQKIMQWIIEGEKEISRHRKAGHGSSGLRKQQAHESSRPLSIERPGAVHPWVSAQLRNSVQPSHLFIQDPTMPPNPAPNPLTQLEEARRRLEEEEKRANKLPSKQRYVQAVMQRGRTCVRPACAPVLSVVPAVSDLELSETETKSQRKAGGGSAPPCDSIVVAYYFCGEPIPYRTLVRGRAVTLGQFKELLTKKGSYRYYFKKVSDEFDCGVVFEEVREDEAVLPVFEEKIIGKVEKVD
UniProt Q02248: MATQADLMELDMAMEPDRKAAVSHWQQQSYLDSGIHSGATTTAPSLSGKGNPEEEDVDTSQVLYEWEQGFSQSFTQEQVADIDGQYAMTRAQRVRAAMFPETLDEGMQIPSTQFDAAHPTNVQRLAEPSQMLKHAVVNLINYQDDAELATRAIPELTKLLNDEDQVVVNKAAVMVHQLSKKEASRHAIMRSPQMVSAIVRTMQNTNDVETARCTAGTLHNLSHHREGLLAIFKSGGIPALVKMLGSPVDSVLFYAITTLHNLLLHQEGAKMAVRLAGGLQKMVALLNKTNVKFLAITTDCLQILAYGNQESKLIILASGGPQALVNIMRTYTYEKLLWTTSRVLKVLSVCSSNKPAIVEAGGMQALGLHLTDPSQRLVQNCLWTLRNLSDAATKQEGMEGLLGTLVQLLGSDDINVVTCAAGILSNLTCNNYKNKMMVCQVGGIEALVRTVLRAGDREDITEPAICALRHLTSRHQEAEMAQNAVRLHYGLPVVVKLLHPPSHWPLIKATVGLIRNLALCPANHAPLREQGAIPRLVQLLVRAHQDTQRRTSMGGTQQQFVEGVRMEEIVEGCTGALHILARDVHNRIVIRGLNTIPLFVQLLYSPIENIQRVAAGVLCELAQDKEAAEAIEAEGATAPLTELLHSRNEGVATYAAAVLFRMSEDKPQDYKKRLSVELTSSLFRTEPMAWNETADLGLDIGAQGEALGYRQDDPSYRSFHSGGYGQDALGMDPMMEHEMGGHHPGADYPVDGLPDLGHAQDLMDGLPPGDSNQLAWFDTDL

[2] = biological target: Axin1 (endogenous in TuBo and 4T1 mammospheres) (mouse (endogenous in TuBo and 4T1)) (UniProt O35625)
[3] = biological target: β-Catenin (endogenous in TuBo and 4T1 mammospheres) (mouse (endogenous in TuBo and 4T1)) (UniProt Q02248)

binding [1]	binding [2]	binding [3]	Substance
binds	binds		β-Catenin (endogenous in TuBo and 4T1 mammospheres) (from UniProt Q02248 1-781)
binds		binds	Axin1 (endogenous in TuBo and 4T1 mammospheres) (from UniProt O35625 1-863)

— publication PMC10175288
